Measurements from PMC3253115.
No constants are given. Whether binding was seen depends on the method and setting. Binding seen in cells or lysates may run through a third protein. Some results given as binding are weak or reduced against the parent protein; the word gives no strength.

The chains behind the UniProt entries cited, without tags or fusion partners. Where a name states a change or a piece, a line headed by the entry shows the natural chain unless it says otherwise. A line that says so, or that is headed by a name, gives the form on record, which may keep a tag or linker. Residues count along the entry.
Myc-tagged TH1 wild type phosphorylated at Tyr-6 by co-expressed c-Src (Y527F) (Q8IXH7, residues 10-590): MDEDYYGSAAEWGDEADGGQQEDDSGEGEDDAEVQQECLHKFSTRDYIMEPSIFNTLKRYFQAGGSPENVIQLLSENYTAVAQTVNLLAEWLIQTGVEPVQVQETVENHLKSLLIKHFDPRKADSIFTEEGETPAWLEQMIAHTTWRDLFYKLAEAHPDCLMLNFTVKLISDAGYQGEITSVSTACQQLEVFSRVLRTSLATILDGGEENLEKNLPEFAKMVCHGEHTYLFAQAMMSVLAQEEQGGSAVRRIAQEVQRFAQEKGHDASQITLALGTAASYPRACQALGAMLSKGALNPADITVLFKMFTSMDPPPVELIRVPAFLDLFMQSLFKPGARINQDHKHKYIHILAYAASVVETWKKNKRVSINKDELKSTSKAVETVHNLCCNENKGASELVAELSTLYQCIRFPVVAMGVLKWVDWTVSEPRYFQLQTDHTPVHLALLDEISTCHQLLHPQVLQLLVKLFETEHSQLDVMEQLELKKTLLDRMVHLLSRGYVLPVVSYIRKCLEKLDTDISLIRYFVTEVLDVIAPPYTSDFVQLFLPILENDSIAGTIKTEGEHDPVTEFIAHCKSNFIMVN
Myc-tagged TH1 Y6F (Q8IXH7, form named): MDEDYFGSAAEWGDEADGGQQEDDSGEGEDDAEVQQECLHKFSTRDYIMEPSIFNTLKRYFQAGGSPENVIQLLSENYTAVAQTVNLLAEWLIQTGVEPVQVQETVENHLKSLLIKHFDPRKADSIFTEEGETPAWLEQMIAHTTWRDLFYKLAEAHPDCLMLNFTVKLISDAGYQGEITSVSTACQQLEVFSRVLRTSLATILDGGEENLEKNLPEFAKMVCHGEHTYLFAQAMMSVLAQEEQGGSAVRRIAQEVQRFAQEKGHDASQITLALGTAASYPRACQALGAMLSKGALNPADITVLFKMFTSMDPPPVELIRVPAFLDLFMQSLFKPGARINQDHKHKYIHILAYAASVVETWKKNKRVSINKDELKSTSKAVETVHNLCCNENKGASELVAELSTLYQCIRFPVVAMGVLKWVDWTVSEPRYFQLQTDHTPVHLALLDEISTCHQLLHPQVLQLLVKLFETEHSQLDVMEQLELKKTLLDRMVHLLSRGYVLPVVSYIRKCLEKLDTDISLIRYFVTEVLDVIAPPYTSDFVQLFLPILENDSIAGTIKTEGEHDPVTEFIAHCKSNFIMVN
UniProt Q13153: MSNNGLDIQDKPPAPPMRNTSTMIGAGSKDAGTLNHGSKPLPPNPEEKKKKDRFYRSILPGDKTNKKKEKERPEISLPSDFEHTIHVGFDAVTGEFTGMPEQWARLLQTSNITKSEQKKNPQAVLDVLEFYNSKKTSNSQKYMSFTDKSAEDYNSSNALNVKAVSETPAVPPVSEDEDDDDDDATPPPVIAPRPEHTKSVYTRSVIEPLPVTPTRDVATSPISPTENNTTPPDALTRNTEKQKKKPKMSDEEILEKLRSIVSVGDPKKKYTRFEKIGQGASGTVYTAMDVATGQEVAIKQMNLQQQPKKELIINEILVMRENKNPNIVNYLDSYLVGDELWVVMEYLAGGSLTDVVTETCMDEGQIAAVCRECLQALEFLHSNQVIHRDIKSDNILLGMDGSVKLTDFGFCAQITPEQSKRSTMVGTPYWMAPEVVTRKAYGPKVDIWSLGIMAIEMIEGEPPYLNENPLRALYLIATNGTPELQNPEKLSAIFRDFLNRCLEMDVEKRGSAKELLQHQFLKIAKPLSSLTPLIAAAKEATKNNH

Key:
Experiment in all cases: co-IP; HeLa cells transfected with HA-A-Raf and Myc-TH1-WT or Myc-TH1-Y6F, with c-Src (Y527F) or control vector; 36 h after transfection IP with anti-Myc antibodies, blot with anti-HA or anti-PAK1
[1] = biological target: Myc-tagged full length TH1 wild type (human) (UniProt Q8IXH7)
[2] = biological target: Myc-tagged TH1 Y6F (human) (UniProt Q8IXH7)
[3] = biological target: Myc-tagged TH1 wild type phosphorylated at Tyr-6 by co-expressed c-Src (Y527F) (human) (UniProt Q8IXH7)

Measured: binding

PAK1, endogenous in HeLa cells (from UniProt Q13153 1-545) (enzyme)
binds: all assays above
